Measured values from PMC9241928.
These are yes or no findings as the source states them, for the method shown. In cells and extracts the contact can be indirect. Some results given as binding are weak or reduced against the parent protein; the word gives no strength.

Chains of the proteins cited; added tags and fusions are not shown.
UniProt P15682: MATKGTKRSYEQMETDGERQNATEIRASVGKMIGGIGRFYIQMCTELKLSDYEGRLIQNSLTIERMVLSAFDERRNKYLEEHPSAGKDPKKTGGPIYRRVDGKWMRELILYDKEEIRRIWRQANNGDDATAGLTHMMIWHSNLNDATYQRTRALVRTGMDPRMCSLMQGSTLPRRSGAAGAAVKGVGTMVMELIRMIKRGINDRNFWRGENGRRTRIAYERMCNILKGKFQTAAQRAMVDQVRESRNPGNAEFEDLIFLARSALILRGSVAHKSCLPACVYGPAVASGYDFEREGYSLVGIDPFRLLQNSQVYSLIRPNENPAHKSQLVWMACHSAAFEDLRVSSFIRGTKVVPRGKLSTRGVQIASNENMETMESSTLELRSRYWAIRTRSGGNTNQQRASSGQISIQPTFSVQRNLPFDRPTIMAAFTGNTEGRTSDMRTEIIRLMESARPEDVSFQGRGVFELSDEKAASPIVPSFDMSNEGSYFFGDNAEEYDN
UniProt P17844: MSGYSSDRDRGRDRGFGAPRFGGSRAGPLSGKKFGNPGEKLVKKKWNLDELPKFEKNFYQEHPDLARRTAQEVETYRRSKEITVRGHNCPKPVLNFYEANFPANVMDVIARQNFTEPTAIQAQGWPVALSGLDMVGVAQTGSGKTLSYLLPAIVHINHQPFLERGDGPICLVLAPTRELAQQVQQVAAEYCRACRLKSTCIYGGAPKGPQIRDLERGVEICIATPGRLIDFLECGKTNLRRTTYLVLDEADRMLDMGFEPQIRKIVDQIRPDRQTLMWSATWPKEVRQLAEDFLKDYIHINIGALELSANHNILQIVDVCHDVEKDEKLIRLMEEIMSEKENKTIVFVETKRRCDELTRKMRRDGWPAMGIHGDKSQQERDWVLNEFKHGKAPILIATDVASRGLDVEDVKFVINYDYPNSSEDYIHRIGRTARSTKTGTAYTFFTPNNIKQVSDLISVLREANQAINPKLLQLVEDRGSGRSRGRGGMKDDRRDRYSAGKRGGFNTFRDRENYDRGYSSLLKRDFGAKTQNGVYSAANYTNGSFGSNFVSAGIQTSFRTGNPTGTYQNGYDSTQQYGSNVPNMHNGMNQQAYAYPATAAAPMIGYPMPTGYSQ

Target: FLAG-NP of influenza virus A/WSN/1933 (H1N1) (influenza A virus A/WSN/1933 (H1N1)) (UniProt P15682)
Assay: co-IP

MYC-DDX5 (human DEAD-box helicase 5, full length) (from UniProt P17844 1-614)
binding: binds
